Measured values: PMC2652428
Results are given in words; binding and its absence hold for the method and conditions named. Binding seen in cells or lysates may run through a third protein. Some results given as binding are weak or reduced against the parent protein; the word gives no strength.

T1: Mcm4-VC155 (S. pombe) (UniProt P29458)
T1 sequence: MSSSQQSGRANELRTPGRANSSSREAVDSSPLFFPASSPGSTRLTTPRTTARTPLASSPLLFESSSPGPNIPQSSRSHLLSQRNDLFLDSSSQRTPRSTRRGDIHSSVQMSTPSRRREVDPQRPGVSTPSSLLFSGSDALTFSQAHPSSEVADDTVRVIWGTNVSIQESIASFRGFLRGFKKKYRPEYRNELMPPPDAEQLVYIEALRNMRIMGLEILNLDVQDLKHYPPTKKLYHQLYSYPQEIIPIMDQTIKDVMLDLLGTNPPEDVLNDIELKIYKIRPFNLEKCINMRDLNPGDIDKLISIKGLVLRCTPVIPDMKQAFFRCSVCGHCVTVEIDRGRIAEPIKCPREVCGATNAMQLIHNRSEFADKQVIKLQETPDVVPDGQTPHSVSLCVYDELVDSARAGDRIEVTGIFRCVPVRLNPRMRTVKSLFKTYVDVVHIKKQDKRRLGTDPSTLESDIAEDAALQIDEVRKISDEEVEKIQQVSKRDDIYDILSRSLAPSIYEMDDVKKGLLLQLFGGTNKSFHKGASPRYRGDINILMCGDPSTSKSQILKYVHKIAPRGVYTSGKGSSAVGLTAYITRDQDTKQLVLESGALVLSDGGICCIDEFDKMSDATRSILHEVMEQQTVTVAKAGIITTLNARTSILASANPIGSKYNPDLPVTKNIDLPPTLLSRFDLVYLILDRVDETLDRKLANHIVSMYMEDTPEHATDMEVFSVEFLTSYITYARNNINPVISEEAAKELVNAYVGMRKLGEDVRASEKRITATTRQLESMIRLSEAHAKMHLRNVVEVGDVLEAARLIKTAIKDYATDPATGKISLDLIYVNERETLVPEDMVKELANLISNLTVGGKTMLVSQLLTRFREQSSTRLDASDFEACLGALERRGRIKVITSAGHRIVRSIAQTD


Legend:
Mcm4-VC155 (S. pombe) [1] = target: T1, Mcm4-VC155 (S. pombe); test: split reporter; chromatin-associated BiFC: S. pombe cells extracted with Triton X-100 in Mg2+-containing low salt buffer at 20°C for 10 min, fixed with methanol/acetone, fluorescence microscopy; also cells treated with 12 mM hydroxyurea for 2 and 4 hours
Mcm4-VC155 (S. pombe) [2] = target: T1, Mcm4-VC155 (S. pombe); test: split reporter; BiFC with Venus fragments VN173 and VC155 on proteins expressed from their native loci; exponentially-growing S. pombe cells (haploid or diploid), fixed with methanol/acetone, fluorescence microscopy

binding (Mcm4-VC155 (S. pombe) [1])	binding (Mcm4-VC155 (S. pombe) [2])	Binder
binds	binds	Mcm4-VC155 (protein, UniProt P29458 1-911) MSSSQQSGRANELRTPGRANSSSREAVDSSPLFFPASSPGSTRLTTPRTTARTPLASSPLLFESSSPGPNIPQSSRSHLLSQRNDLFLDSSSQRTPRSTRRGDIHSSVQMSTPSRRREVDPQRPGVSTPSSLLFSGSDALTFSQAHPSSEVADDTVRVIWGTNVSIQESIASFRGFLRGFKKKYRPEYRNELMPPPDAEQLVYIEALRNMRIMGLEILNLDVQDLKHYPPTKKLYHQLYSYPQEIIPIMDQTIKDVMLDLLGTNPPEDVLNDIELKIYKIRPFNLEKCINMRDLNPGDIDKLISIKGLVLRCTPVIPDMKQAFFRCSVCGHCVTVEIDRGRIAEPIKCPREVCGATNAMQLIHNRSEFADKQVIKLQETPDVVPDGQTPHSVSLCVYDELVDSARAGDRIEVTGIFRCVPVRLNPRMRTVKSLFKTYVDVVHIKKQDKRRLGTDPSTLESDIAEDAALQIDEVRKISDEEVEKIQQVSKRDDIYDILSRSLAPSIYEMDDVKKGLLLQLFGGTNKSFHKGASPRYRGDINILMCGDPSTSKSQILKYVHKIAPRGVYTSGKGSSAVGLTAYITRDQDTKQLVLESGALVLSDGGICCIDEFDKMSDATRSILHEVMEQQTVTVAKAGIITTLNARTSILASANPIGSKYNPDLPVTKNIDLPPTLLSRFDLVYLILDRVDETLDRKLANHIVSMYMEDTPEHATDMEVFSVEFLTSYITYARNNINPVISEEAAKELVNAYVGMRKLGEDVRASEKRITATTRQLESMIRLSEAHAKMHLRNVVEVGDVLEAARLIKTAIKDYATDPATGKISLDLIYVNERETLVPEDMVKELANLISNLTVGGKTMLVSQLLTRFREQSSTRLDASDFEACLGALERRGRIKVITSAGHRIVRSIAQTD
binds	binds	Psf1-VN173 (protein, UniProt Q9P7X6 1-202) MENGLGNRSNKLIRDSKRTQYLDYLPPYQADTVNDVVNEIRAADRESLGILQNVTHEASQPFQPQDHPSEAAALLMFHSSSIYNKRCLMAYHNLRLQRLRQYCWSGGKRMESCLDTSLSTYERDYLTRYSELLAAYKGAWSELDLTGSLVPPKNLFIDVRVLKDVGDIETEYGTINLTKNSQLHVRATDVERLIAQGFLAKL
